Measurements reported in article doi:10.1101/2024.10.07.617058.
Results are given in words; binding and its absence hold for the method and conditions named. In cells and extracts the contact can be indirect. Some results given as binding are weak or reduced against the parent protein; the word gives no strength.

The chains behind the UniProt entries cited, without tags or fusion partners. Where a name states a change or a piece, a line headed by the entry shows the natural chain unless it says otherwise.
UniProt Q96A65: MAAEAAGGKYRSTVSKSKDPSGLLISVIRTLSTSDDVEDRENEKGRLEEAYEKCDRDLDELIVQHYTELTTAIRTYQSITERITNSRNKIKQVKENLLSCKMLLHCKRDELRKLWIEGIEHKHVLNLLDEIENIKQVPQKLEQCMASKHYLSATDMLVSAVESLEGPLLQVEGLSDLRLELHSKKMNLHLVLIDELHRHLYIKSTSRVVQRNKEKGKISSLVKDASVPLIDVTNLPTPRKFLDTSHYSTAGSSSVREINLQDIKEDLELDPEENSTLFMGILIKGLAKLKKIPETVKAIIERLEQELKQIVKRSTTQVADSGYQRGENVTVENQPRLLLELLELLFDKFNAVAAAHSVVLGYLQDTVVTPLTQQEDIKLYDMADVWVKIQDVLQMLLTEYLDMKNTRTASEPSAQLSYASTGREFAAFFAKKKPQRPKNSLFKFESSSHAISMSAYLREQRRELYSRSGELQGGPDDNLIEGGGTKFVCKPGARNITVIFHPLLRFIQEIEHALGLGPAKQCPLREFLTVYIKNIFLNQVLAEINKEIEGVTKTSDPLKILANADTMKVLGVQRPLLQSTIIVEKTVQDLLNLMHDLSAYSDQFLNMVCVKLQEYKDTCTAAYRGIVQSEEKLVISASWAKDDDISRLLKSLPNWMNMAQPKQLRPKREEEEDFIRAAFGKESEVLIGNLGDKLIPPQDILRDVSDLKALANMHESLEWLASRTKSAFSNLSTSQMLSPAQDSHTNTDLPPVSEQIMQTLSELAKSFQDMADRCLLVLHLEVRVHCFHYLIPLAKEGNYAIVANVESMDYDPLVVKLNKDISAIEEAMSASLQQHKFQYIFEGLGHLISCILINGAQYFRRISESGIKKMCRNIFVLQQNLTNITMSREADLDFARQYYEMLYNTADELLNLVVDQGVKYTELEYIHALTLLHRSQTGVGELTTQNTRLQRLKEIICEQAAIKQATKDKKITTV
UniProt Q9NV70: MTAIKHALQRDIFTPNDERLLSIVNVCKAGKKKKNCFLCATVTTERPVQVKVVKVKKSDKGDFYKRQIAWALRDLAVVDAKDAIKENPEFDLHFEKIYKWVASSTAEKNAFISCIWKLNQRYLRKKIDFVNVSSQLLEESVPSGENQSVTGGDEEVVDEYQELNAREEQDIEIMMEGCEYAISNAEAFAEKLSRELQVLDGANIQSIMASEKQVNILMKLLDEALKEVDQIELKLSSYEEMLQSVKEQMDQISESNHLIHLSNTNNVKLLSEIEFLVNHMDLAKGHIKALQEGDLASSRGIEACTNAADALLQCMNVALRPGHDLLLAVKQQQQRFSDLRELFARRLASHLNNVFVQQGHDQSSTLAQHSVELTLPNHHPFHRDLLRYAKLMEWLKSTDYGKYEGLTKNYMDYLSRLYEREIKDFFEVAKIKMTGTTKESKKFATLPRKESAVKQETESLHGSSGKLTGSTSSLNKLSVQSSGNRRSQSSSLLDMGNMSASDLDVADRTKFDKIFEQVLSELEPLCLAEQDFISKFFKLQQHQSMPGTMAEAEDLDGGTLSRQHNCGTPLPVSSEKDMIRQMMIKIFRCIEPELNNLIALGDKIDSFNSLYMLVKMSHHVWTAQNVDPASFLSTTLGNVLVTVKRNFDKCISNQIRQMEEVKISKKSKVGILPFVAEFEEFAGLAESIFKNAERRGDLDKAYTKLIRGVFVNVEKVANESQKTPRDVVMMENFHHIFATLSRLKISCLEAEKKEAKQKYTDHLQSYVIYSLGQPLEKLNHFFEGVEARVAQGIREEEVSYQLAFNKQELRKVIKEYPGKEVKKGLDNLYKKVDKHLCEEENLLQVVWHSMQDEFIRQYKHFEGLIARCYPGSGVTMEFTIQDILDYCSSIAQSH
UniProt O60645: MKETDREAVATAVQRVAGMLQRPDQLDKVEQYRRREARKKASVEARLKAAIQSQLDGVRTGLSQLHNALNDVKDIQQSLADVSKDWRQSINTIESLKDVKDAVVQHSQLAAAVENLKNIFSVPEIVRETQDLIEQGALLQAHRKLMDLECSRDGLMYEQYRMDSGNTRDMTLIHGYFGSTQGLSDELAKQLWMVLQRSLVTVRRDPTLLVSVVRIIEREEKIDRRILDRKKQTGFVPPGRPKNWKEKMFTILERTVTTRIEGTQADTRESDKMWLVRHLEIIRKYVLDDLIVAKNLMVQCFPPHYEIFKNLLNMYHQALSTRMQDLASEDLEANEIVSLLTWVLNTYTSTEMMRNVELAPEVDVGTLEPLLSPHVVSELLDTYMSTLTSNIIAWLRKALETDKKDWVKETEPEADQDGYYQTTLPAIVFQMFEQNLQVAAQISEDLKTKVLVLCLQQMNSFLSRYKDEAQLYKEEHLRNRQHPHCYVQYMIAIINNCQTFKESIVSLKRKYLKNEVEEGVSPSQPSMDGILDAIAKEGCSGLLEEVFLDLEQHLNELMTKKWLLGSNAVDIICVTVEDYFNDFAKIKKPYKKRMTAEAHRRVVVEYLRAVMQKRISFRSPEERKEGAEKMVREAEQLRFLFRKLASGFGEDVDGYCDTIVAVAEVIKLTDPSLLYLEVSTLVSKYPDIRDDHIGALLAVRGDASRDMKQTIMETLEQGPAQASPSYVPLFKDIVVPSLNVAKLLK

Key:
[1] = target: GST-fusion of Exoc4ΔLoop (Exoc4 with T410-V492 deleted) (human) (UniProt Q96A65); test: pull-down
[2] = target: GST-fusion of Exoc4 (human) (UniProt Q96A65); test: pull-down

binding [1]	binding [2]	Substance
binds	binds	Exoc1 (single subunit coexpressed with the GST-fusions of Exoc4) (from UniProt Q9NV70 1-894)
binds	binds	Exoc3 (single subunit coexpressed with the GST-fusions of Exoc4) (from UniProt O60645 1-745)
